Starred links: 1 amine or outer side, 2 acyl side, 3 side chain; linkers in the order of their positions; H or OH if unused. Residues, ends and D or L forms follow the SMILES beside them. CO = O=C([*:1])[*:2]
How the values were obtained:
[1] = system: fillets of Pacific hake containing spots of jellied condition; experiment: Appearance and organoleptic test of fillets broiled with salt (Example 2); settings: number of 50 fillets, dipped 30 minutes in 10% sodium chloride with 0.001% antipain
[2] = system: yellowfin sole containing spots of jellied condition; experiment: Appearance and mouth feel of dried flatfish with salt (Example 7); set-up: species or system North Pacific yellowfin sole
[3] = of 50 fish, same dip, control 2

Compound | Appearance of a perfect fillet state, and texture of normal ([1]; control 0) | Muscles are softened, and partially depressed ([1]; control 7) | Appearance of a perfect fillet state, but slightly softened texture ([1]; control 12) | Muscles are wholly softened, and crumbled ([1]; control 31) | taste and flavour of broiled dried flatfish ([2]; Example 7 sample, broiled and eaten) | Appearance: Number of flatfish having perfect fish shape ([2]; of 50 fish, dipped 2 hours in 10% sodium chloride with 0.01% chymostatin, supersonic waves 18 KC 10 minutes, control 26) | Appearance: Number of flatfish consisting only of bones and skins [2, 3] | Mouth feel: Number of flatfish in the form of jelly or "nikogori" [2, 3] | Mouth feel: Number of flatfish having flesh like mashed potato ([2]; of 50 fish, same dip, control 17) | Appearance: Number of flatfish whose muscle was softened and partially depressed ([2]; of 50 fish, same dip, control 22)
CC(C)[C@H](NC(=O)[C@H](CCCNC(=N)N)NC(=O)N[C@@H](Cc1ccccc1)C(=O)O)C(=O)N[C@H](C=O)CCCNC(=N)N [antipain] ({Phe-CO}-Arg-Val-Arg-aldehyde) | 39 | 2 | 8 | 1 | – | – | – | – | – | –
chymostatin | – | – | – | – | the same taste and flavour as a conventional dried fish | 48 | 0 | 1 | 0 | 2

Source: US4284653A, “Process for handling and processing fish meat” (Nippon Suisan Kabushiki Kaisha, priority 1979, dated 1981)
